# Laboratory results from the supplement of paper PMC12819154, “High-throughput peptide-centric local stability assay extends protein–ligand identification to membrane proteins, tissues and bacteria” (Nature Structural & Molecular Biology, 2025).
# Protein sequences, listed by entry. Tags and fused reporters are not part of them. Lines headed by an entry give the natural chain unless they say otherwise; changes in a name come on top.
# UniProt Q62148: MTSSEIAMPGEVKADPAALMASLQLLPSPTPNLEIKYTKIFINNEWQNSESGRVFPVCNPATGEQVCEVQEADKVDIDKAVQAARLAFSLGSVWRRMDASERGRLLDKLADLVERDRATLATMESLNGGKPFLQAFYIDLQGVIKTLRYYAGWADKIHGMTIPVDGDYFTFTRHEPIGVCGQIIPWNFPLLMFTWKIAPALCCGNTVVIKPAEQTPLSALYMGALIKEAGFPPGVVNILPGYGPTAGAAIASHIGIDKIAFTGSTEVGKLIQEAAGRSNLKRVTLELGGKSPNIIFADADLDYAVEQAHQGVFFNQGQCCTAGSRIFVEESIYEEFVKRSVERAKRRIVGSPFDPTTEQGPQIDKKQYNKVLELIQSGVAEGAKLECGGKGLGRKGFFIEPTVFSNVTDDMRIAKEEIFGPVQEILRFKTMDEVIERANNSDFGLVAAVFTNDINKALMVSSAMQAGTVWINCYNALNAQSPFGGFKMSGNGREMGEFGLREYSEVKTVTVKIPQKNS
# UniProt Q68FH0: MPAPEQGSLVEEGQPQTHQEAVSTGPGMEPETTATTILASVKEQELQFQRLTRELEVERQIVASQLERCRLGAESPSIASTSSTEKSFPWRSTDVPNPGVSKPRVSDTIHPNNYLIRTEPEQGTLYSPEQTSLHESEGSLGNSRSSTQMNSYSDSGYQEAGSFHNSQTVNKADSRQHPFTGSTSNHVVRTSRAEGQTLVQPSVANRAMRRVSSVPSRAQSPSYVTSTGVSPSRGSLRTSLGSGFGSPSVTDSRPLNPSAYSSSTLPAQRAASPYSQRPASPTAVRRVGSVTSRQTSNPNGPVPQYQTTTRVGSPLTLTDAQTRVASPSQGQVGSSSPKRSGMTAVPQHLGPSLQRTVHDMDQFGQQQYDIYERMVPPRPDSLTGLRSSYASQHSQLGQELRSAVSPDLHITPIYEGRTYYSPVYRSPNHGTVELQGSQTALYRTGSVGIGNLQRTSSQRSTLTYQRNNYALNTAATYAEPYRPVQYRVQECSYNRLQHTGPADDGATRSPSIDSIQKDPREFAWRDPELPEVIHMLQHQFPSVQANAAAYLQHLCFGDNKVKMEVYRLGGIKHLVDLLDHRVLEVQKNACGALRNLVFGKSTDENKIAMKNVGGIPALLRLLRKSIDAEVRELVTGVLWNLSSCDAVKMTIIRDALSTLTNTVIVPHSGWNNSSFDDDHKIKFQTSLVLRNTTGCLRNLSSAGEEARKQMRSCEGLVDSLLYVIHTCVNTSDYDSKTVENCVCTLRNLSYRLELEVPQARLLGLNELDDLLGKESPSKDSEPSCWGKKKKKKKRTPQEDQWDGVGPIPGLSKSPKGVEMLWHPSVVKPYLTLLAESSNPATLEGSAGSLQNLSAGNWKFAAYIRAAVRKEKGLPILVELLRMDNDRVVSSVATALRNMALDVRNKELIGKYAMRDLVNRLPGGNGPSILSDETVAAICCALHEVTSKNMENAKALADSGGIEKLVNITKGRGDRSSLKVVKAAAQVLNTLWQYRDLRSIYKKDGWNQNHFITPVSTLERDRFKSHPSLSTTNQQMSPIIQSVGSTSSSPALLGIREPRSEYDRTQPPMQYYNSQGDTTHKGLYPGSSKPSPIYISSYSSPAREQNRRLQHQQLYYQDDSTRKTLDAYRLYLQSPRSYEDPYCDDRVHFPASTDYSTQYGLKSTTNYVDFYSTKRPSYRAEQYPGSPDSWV
# UniProt Q66L42: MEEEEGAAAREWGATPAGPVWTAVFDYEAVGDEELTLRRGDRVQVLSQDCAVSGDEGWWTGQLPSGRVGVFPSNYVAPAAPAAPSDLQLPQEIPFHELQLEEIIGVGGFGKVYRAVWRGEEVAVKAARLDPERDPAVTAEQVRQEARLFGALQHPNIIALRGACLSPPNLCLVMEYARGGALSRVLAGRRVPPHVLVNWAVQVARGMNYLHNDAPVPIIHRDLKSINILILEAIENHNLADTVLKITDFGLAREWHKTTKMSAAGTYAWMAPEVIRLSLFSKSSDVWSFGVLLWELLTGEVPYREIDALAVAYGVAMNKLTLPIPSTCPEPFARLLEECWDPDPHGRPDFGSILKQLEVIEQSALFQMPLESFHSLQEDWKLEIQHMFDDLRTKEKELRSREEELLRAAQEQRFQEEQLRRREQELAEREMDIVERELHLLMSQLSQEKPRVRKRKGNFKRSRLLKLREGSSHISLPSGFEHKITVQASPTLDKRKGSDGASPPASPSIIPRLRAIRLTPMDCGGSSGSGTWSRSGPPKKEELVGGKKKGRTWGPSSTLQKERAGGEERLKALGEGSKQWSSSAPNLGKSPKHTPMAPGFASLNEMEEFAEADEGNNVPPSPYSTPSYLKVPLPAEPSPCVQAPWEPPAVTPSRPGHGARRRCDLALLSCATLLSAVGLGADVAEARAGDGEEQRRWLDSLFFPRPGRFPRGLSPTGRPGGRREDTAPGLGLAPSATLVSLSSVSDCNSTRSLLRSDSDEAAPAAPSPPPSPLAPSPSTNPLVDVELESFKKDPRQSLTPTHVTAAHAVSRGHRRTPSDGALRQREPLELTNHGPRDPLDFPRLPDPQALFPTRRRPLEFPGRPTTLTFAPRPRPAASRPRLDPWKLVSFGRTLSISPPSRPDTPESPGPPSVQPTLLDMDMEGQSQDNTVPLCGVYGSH
# UniProt Q62086: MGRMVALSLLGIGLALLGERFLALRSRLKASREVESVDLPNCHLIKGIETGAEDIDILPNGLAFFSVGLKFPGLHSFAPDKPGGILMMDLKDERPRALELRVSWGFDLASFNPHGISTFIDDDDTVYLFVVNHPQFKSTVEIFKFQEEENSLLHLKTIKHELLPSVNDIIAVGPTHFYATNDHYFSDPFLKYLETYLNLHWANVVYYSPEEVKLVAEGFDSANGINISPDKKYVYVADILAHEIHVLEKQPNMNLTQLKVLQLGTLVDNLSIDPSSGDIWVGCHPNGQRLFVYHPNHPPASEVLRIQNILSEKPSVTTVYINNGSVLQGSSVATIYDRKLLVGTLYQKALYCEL
# UniProt Q62351, whole entry: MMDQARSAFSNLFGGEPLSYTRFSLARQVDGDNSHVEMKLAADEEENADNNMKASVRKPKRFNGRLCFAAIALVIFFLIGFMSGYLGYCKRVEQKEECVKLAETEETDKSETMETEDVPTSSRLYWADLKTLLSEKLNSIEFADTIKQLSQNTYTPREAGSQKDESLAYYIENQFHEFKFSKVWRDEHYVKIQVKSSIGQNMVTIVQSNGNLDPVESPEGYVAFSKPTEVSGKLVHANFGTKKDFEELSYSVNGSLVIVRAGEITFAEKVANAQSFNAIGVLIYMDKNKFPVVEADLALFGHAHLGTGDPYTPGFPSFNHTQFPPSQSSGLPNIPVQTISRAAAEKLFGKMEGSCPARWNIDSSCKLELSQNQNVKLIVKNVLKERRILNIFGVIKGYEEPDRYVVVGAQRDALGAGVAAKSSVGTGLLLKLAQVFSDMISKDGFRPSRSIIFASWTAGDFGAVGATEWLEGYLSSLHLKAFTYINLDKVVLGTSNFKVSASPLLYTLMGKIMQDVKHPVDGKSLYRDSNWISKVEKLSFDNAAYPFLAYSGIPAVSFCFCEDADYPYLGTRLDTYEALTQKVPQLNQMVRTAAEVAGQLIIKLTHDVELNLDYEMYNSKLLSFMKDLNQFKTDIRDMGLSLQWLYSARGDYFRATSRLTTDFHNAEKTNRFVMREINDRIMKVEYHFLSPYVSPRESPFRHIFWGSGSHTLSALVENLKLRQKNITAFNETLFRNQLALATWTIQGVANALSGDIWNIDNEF
# UniProt Q64435: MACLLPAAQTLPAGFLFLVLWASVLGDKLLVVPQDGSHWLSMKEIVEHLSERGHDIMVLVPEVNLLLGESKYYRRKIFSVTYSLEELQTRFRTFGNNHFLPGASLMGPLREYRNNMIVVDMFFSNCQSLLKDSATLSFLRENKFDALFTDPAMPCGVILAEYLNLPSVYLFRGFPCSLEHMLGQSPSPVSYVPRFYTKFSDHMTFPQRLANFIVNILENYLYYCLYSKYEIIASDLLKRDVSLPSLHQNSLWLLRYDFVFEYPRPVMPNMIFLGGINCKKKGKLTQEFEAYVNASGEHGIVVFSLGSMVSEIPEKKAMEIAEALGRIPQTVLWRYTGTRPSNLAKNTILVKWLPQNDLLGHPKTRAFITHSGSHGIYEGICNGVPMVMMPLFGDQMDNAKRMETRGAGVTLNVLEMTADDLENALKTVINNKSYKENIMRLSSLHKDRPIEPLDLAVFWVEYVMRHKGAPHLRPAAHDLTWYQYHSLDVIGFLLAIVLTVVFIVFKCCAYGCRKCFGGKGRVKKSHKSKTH
# UniProt Q61585: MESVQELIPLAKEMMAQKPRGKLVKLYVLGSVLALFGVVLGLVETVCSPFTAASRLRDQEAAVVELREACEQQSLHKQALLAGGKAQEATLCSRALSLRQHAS
# UniProt Q61703: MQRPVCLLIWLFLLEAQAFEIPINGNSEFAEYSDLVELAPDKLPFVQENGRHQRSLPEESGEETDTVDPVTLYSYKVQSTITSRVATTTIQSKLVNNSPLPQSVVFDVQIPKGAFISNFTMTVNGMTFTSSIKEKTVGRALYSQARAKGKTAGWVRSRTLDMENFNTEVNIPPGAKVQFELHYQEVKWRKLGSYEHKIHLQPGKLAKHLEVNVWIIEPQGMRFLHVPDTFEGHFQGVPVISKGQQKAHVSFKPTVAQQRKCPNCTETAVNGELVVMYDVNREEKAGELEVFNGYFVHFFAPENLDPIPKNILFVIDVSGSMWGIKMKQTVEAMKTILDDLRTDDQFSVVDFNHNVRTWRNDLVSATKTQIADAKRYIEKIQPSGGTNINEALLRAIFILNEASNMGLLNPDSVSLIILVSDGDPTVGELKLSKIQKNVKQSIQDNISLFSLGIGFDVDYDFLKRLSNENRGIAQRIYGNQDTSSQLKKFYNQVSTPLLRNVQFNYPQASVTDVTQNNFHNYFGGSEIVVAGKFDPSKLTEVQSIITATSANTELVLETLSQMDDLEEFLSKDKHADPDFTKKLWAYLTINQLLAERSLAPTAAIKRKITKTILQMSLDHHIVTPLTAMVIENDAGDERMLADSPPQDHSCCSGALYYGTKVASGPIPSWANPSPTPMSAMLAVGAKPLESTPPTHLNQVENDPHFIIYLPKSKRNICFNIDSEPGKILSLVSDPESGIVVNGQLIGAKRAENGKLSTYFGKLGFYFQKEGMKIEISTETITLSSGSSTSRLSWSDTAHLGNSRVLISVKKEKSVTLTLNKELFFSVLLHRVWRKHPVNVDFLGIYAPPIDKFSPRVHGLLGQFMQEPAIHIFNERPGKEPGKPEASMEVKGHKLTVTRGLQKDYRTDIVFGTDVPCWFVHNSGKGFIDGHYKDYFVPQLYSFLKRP
# UniProt Q61851, whole entry, looked up: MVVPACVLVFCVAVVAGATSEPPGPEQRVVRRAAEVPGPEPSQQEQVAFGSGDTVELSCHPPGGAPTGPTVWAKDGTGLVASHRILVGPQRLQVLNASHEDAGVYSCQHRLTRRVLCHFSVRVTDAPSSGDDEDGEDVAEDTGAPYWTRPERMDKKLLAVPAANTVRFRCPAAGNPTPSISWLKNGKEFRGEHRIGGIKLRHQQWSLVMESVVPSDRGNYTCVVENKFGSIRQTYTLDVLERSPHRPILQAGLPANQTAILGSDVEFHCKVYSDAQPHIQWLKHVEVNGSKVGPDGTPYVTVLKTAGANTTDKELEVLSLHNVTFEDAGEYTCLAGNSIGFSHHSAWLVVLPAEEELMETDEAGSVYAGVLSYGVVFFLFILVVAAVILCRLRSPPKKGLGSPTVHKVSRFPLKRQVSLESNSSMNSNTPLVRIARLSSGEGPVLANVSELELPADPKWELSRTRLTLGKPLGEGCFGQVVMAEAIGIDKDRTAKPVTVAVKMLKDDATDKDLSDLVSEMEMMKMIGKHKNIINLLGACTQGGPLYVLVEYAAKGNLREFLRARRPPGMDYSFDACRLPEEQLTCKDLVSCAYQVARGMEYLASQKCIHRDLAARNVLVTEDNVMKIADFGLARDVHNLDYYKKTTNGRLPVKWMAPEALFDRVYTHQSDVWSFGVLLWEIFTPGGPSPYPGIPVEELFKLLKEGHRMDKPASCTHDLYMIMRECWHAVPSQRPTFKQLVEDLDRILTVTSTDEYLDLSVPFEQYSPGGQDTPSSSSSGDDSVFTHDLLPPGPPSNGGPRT
# UniProt Q62392: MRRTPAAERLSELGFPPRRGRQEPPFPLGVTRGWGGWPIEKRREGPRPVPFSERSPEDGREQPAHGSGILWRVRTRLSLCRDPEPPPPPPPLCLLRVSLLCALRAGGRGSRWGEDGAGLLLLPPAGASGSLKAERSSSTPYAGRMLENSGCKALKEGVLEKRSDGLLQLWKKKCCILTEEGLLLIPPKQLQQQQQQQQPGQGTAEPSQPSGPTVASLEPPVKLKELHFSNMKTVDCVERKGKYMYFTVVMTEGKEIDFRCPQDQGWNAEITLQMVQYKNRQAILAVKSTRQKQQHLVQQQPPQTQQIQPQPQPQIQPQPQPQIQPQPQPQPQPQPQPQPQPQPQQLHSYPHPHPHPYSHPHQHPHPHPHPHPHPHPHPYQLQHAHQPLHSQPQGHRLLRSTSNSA
# Some of the results follow. Most entries show no effect beyond the scatter of the controls.
# Compound: CN[C@@H]1C[C@H]2O[C@@](C)([C@@H]1OC)n1c3ccccc3c3c4c(c5c6ccccc6n2c5c31)C(=O)NC4 [staurosporine]
# Assay: log2 fold change of tryptic peptide abundance, ligand vs vehicle (limited proteolysis) (log2 ratio); higher = more trypsin-susceptible (destabilized)
# Settings: ligand concentration: 20 uM; sample: mouse liver crude lysate; replicate design: treated separately
row,Target,log2 fold change
1,"UniProt Q63ZW7 (peptide sequence: LQTGDHILK, peptide start residue: 287)",0.352
2,"UniProt Q62255 (peptide sequence: LQQLVENIDKK, peptide start residue: 690)",-0.663
3,"UniProt Q61817 (peptide sequence: AAEQEMSR, peptide start residue: 147)",0.534
4,"UniProt Q62383 (peptide sequence: EKPTFIPYFICACK, peptide start residue: 1453)",0.327
5,"UniProt Q62101 (peptide sequence: RSVVGTPAYLAPEVLR, peptide start residue: 733)",-0.0964
6,"UniProt Q62172 (peptide sequence: QIASEKEEIDR, peptide start residue: 506)",0.277
7,"UniProt Q62148 (peptide sequence: RMDASER, peptide start residue: 97)",0.183
8,"UniProt Q64455 (peptide sequence: IPVTNLSQLHK, peptide start residue: 203)",0.442
9,"UniProt Q68FH0 (peptide sequence: SAVSPDLHITPIYEGR, peptide start residue: 402)",-0.248
10,"UniProt Q66L42 (peptide sequence: ITVQASPTLDKR, peptide start residue: 507)",-0.29
11,"UniProt Q61586 (peptide sequence: FFNPSIPSLGLR, peptide start residue: 78)",0.223
12,"UniProt Q62086 (peptide sequence: EVESVDLPNCHLIK, peptide start residue: 33)",-0.357
13,"UniProt Q61502 (peptide sequence: STMAAQNLPEQHVSER, peptide start residue: 255)",-0.259
14,"UniProt Q62351 (peptide sequence: LTTDFHNAEK, peptide start residue: 659)",0.439
15,"UniProt Q64674 (peptide sequence: SRYQDILVFR, peptide start residue: 46)",-0.232
16,"UniProt Q64435 (peptide sequence: EIVEHLSER, peptide start residue: 44)",-0.816
17,"UniProt Q61585 (peptide sequence: EACEQQSLHK, peptide start residue: 68)",-0.203
18,"UniProt Q68FE9 (peptide sequence: SSLHVVDKPVISPTSTRPAASVAR, peptide start residue: 727)",1.04
19,"UniProt Q61418 (peptide sequence: LLGIITKK, peptide start residue: 789)",0.118
20,"UniProt Q62452 (peptide sequence: YTGTRPSNLAK, peptide start residue: 339)",-0.436

# Taken from above.
# UniProt Q63ZW7 (peptide sequence: LQTGDHILK, peptide start residue: 287) – log2 fold change: 0.352
# UniProt Q62086 (peptide sequence: EVESVDLPNCHLIK, peptide start residue: 33) – log2 fold change: -0.357

# Further records follow.

row,Target,log2 fold change
1,"UniProt Q64321 (peptide sequence: FLHSYDLK, peptide start residue: 415)",0.259
2,"UniProt Q64008 (peptide sequence: VTCACQEHR, peptide start residue: 36)",-0.286
3,"UniProt Q64462 (peptide sequence: ALDSFPGPPK, peptide start residue: 42)",-0.246
4,"UniProt Q64374 (peptide sequence: LWVACYNGGR, peptide start residue: 214)",0.401
5,"UniProt Q62210 (peptide sequence: AVEDFSSR, peptide start residue: 159)",0.268
6,"UniProt Q62406 (peptide sequence: AIQFLHQDSPSLIHGDIK, peptide start residue: 325)",-0.365
7,"UniProt Q61699 (peptide sequence: EKENLSYDLVPMK, peptide start residue: 83)",0.282
8,"UniProt Q62513 (peptide sequence: IHTGEKPYQCSECGK, peptide start residue: 376)",0.207
9,"UniProt Q64FW2 (peptide sequence: GVSHAVLLK, peptide start residue: 203)",0.523
10,"UniProt Q61703 (peptide sequence: IYGNQDTSSQLK, peptide start residue: 476)",0.188
11,"UniProt Q61823 (peptide sequence: EIDMLLK, peptide start residue: 330)",-0.385
12,"UniProt Q64511 (peptide sequence: HLTYNDFINK, peptide start residue: 701)",0.246
13,"UniProt Q61687 (peptide sequence: LTPVSLSNSPIK, peptide start residue: 582)",0.181
14,"UniProt Q64151 (peptide sequence: GGSGHPLPELADELRR, peptide start residue: 801)",-0.476
15,"UniProt Q65Z40 (peptide sequence: DSQLIISSAK, peptide start residue: 887)",-0.597
16,"UniProt Q61851 (peptide sequence: LLAVPAANTVR, peptide start residue: 157)",0.0848
17,"UniProt Q62392 (peptide sequence: KKCCILTEEGLLLIPPK, peptide start residue: 172)",-0.13
18,"UniProt Q64524 (peptide sequence: ESYSIYVYK, peptide start residue: 36)",0.641
19,"UniProt Q61464 (peptide sequence: KDYQSEADLPIR, peptide start residue: 369)",-0.401
